# In the supplement of paper PMC3682954:
# Structures can show the parent of a compound that is named as a salt. ± gives the standard deviation of the averaged measurements. Some of the results follow. Repeats are few or missing, and single values can be far off.
# Test system: RAW 264.7
# Assay: HMGB1-induced TNF-alpha production relative to HMGB1-stimulated control; higher = more TNF-alpha secretion (less inhibition)
# Settings: stimulus: HMGB1 5 ug/ml, 18 h
# [1] = compound concentration: 1 ug/ml
Structure (SMILES),HMGB1-induced TNF-alpha production (compound concentration: 3 uM),HMGB1-induced TNF-alpha production [1]
C[C@]12C=CC(=O)C=C1CC[C@@H]1C2=CC[C@]2(C)[C@@H](C(=O)CN3CCN(c4cc(N5CCCC5)nc(N5CCCC5)n4)CC3)CC[C@@H]12,78%,
O=c1ccc2c(OCCCCc3ccccc3)c3ccoc3cc2o1 [Psora-4],103%,
NC(=O)c1cc[n+](CC2=C(C(=O)O)N3C(=O)[C@@H](NC(=O)C(c4ccccc4)S(=O)(=O)[O-])[C@H]3SC2)cc1 (stereo partly specified) [Cefsulodin sodium salt hydrate],81.7%,
CCn1cc(C(=O)O)c(=O)c2cc(F)c(N3CCNC(C)C3)c(F)c21 (stereo unspecified) [Lomefloxacin hydrochloride],97.9 ± 15%,
CCn1cc(C(=O)O)c(=O)c2cc(F)c(N3CCNC(C)C3)c(F)c21 (stereo unspecified) [Lomefloxacin],101%,
CCn1cc(C(=O)O)c(=O)c2cc(F)c(N3CCNC(C)C3)c(F)c21 (stereo unspecified),86.7%,
COc1cc(C)nc(-n2nc(C)cc2OC)n1,104%,
COc1cc(C)nc(-n2nc(C)cc2OC)n1 [Epirizole],72.5%,
CS(=O)(=O)Nc1ccc([N+](=O)[O-])cc1Oc1ccccc1 [Nimesulide],102 ± 23%,
CS(=O)(=O)Nc1ccc([N+](=O)[O-])cc1Oc1ccccc1,81%,
O=C(O)C1=CCNCC1 [Isoguvacine hydrochloride],82.5%,
CNC(=C[N+](=O)[O-])NCCSCc1csc(CN(C)C)n1 [Nizatidine],112%,
CNC(=C[N+](=O)[O-])NCCSCc1csc(CN(C)C)n1,96.4 ± 13%,
CC(C)CN(C[C@@H](O)[C@H](Cc1ccccc1)NC(=O)O[C@H]1CCOC1)S(=O)(=O)c1ccc(N)cc1 [Amprenavir],109%,
CCC1=C[C@@H]2CN(C1)Cc1c([nH]c3ccccc13)[C@@](C(=O)OC)(c1cc3c(cc1OC)N(C)[C@H]1[C@@](O)(C(=O)OC)[C@H](OC(C)=O)[C@]4(CC)C=CCN5CC[C@]31[C@@H]54)C2 [Vinorelbine],95.4%,
CCN(CC)CCn1c(=O)c(Cc2ccc(OC)cc2)nc2ccccc21 [Caroverine hydrochloride],97.7%,
Cc1cccc(CCN2CCC(C(=O)c3ccc(NS(C)(=O)=O)cc3)CC2)n1,95.2%,
CO[C@H]1C[C@@H]2CC[C@@H](C)[C@@](O)(O2)C(=O)C(=O)N2CCCC[C@H]2C(=O)O[C@H]([C@H](C)C[C@@H]2CC[C@@H](O)[C@H](OC)C2)CC(=O)[C@H](C)/C=C(\C)[C@@H](O)[C@@H](OC)C(=O)[C@H](C)C[C@H](C)/C=C/C=C/C=C/1C [Rapamycin],84.3%,
CO[C@H]1C[C@@H]2CC[C@@H](C)[C@@](O)(O2)C(=O)C(=O)N2CCCC[C@H]2C(=O)O[C@H]([C@H](C)C[C@@H]2CC[C@@H](O)[C@H](OC)C2)CC(=O)[C@H](C)/C=C(\C)[C@@H](O)[C@@H](OC)C(=O)[C@H](C)C[C@H](C)/C=C/C=C/C=C/1C,103 ± 12%,
CS(=O)(=O)c1ccc([C@H](O)[C@@H](COC(=O)CN)NC(=O)C(Cl)Cl)cc1 [Thiamphenicol glycinate],88.2%,
NS(=O)(=O)c1ccc(C(=O)O)cc1,93.6%,
CNc1cc(NS(=O)(=O)c2ccc(N)cc2)nc(NC)n1 [Ro 04-6790 dihydrochloride],111%,
CCN(CC)CCCC(C)Nc1c2ccc(Cl)cc2nc2ccc(OC)cc12 (stereo unspecified),54.7 ± 19%,
CCN(CC)CCCC(C)Nc1c2ccc(Cl)cc2nc2ccc(OC)cc12 (stereo unspecified) [Quinacrine dihydrochloride],88.8%,
CCN(CC)CCCC(C)Nc1c2ccc(Cl)cc2nc2ccc(OC)cc12 (stereo unspecified) [Quinacrine dihydrochloride dihydrate],61.9%,
CCN(CC)CCCC(C)Nc1c2ccc(Cl)cc2nc2ccc(OC)cc12 (stereo unspecified) [Quinacrine],77.1%,
Cc1nc(C)c(Cl)c(O)c1Cl,112%,

# Another view of part of the listing above.
Structure (SMILES) | HMGB1-induced TNF-alpha production (compound concentration: 3 uM) | HMGB1-induced TNF-alpha production [1]
O=c1ccc2c(OCCCCc3ccccc3)c3ccoc3cc2o1 [Psora-4] | 103% | 
NC(=O)c1cc[n+](CC2=C(C(=O)O)N3C(=O)[C@@H](NC(=O)C(c4ccccc4)S(=O)(=O)[O-])[C@H]3SC2)cc1 (stereo partly specified) [Cefsulodin sodium salt hydrate] | 81.7% | 
CCn1cc(C(=O)O)c(=O)c2cc(F)c(N3CCNC(C)C3)c(F)c21 (stereo unspecified) [Lomefloxacin hydrochloride] | 97.9 ± 15% | 
CCn1cc(C(=O)O)c(=O)c2cc(F)c(N3CCNC(C)C3)c(F)c21 (stereo unspecified) [Lomefloxacin] | 101% | 
CCn1cc(C(=O)O)c(=O)c2cc(F)c(N3CCNC(C)C3)c(F)c21 (stereo unspecified) | 86.7% | 
COc1cc(C)nc(-n2nc(C)cc2OC)n1 [Epirizole] | 72.5% | 
CS(=O)(=O)Nc1ccc([N+](=O)[O-])cc1Oc1ccccc1 [Nimesulide] | 102 ± 23% | 
CS(=O)(=O)Nc1ccc([N+](=O)[O-])cc1Oc1ccccc1 | 81% | 
CNC(=C[N+](=O)[O-])NCCSCc1csc(CN(C)C)n1 [Nizatidine] | 112% | 
CNC(=C[N+](=O)[O-])NCCSCc1csc(CN(C)C)n1 | 96.4 ± 13% | 
CCC1=C[C@@H]2CN(C1)Cc1c([nH]c3ccccc13)[C@@](C(=O)OC)(c1cc3c(cc1OC)N(C)[C@H]1[C@@](O)(C(=O)OC)[C@H](OC(C)=O)[C@]4(CC)C=CCN5CC[C@]31[C@@H]54)C2 [Vinorelbine] | 95.4% | 
Cc1cccc(CCN2CCC(C(=O)c3ccc(NS(C)(=O)=O)cc3)CC2)n1 | 95.2% | 
CO[C@H]1C[C@@H]2CC[C@@H](C)[C@@](O)(O2)C(=O)C(=O)N2CCCC[C@H]2C(=O)O[C@H]([C@H](C)C[C@@H]2CC[C@@H](O)[C@H](OC)C2)CC(=O)[C@H](C)/C=C(\C)[C@@H](O)[C@@H](OC)C(=O)[C@H](C)C[C@H](C)/C=C/C=C/C=C/1C [Rapamycin] | 84.3% | 
CS(=O)(=O)c1ccc([C@H](O)[C@@H](COC(=O)CN)NC(=O)C(Cl)Cl)cc1 [Thiamphenicol glycinate] | 88.2% | 
CNc1cc(NS(=O)(=O)c2ccc(N)cc2)nc(NC)n1 [Ro 04-6790 dihydrochloride] | 111% | 
CCN(CC)CCCC(C)Nc1c2ccc(Cl)cc2nc2ccc(OC)cc12 (stereo unspecified) | 54.7 ± 19% | 

# Following part

Structure (SMILES),HMGB1-induced TNF-alpha production (compound concentration: 3 uM),HMGB1-induced TNF-alpha production [1]
Cc1nc(C)c(Cl)c(O)c1Cl [Clopidol],105%,
CCCCCCCCCCCCCCCC[N+](C)(C)CCN(Cc1ccc(OC)cc1)c1ncccn1 [Thonzonium bromide],67.7%,
Nc1ncnc2c1ncn2[C@@H]1O[C@H](CO)[C@@H](OP(=O)(O)O)[C@H]1O [3'-Adenylic acid],,81%
O=C(O)P(=O)(O)O,99.4%,
C#C[C@]1(O)CC[C@H]2[C@@H]3CCc4cc(OC)ccc4[C@H]3CC[C@@]21C,101 ± 20%,
C#C[C@]1(O)CC[C@H]2[C@@H]3CCc4cc(OC)ccc4[C@H]3CC[C@@]21C [Ethynylestradiol 3-methyl ether],111%,
CC(C)NCC(O)c1ccc(NS(C)(=O)=O)cc1 (stereo unspecified) [Sotalol],95.7%,
CC(C)NCC(O)c1ccc(NS(C)(=O)=O)cc1 (stereo unspecified) [Sotalol hydrochloride],98.2%,
CC1=C(C)C(=O)C(CCCCC#CCCCC#CCO)=C(C)C1=O,90.4%,
CC1=C(C)C(=O)C(CCCCC#CCCCC#CCO)=C(C)C1=O [Docebenone],102%,
COc1cc(C=O)ccc1O [Vanillin],,81.1%
CN(CCOc1ccc(NS(C)(=O)=O)cc1)CCc1ccc(NS(C)(=O)=O)cc1,111%,
CN(CCOc1ccc(NS(C)(=O)=O)cc1)CCc1ccc(NS(C)(=O)=O)cc1 [Dofetilide],86.3%,
CC(=O)N1CCN(c2ccc(OCC3COC(Cn4ccnc4)(c4ccc(Cl)cc4Cl)O3)cc2)CC1 (stereo unspecified),99.5 ± 14%,
CC(=O)N1CCN(c2ccc(OCC3COC(Cn4ccnc4)(c4ccc(Cl)cc4Cl)O3)cc2)CC1 (stereo unspecified) [Ketoconazole],82.7 ± 32%,
CCOC(=O)Nc1ccc2c(c1)N(C(=O)CCN1CCOCC1)c1ccccc1S2 [Moricizine hydrochloride],89.8%,
O=c1c(-c2ccc(O)cc2)coc2cc(O)cc(O)c12 [Genistein],83.5%,
O=c1cc(-c2cccc(O)c2O)oc2ccccc12,,42.3%
N[C@H](Cc1ccccc1)C(=O)O,76.3%,
Nc1c2c(nc3c1CCC3)CCCC2,105%,
"COc1cc(OC)c(C(=O)/C=C/c2ccc(OC)c(OC)c2)c(OC)c1 [3,4,2',4',6'-Pentamethoxychalcone]",,73.1%
CCCc1nc(C)c2c(O)nc(-c3cc(S(=O)(=O)N4CCN(CC)CC4)ccc3OCC)nn12,73.9%,
CN(C)CCCSc1ccccc1NC(=O)/C=C/c1ccccc1 [Cinanserin],95.3 ± 19%,
COC(=O)[C@H]1[C@H]2C[C@@H]3c4[nH]c5cc(OC)ccc5c4CCN3C[C@H]2C[C@@H](OC(=O)c2cc(OC)c(OC)c(OC)c2)[C@@H]1OC [Reserpine],105 ± 1.7%,71.4%
COC(=O)[C@H]1[C@H]2C[C@@H]3c4[nH]c5cc(OC)ccc5c4CCN3C[C@H]2C[C@@H](OC(=O)c2cc(OC)c(OC)c(OC)c2)[C@@H]1OC,91.2%,
CC(C)C[C@H](NC(=O)[C@@H](O)[C@H](N)Cc1ccccc1)C(=O)O [Bestatin hydrochloride],77.5%,
CC(C)C[C@H](NC(=O)[C@@H](O)[C@H](N)Cc1ccccc1)C(=O)O,97.5%,

Structure (SMILES),HMGB1-induced TNF-alpha production (compound concentration: 3 uM),HMGB1-induced TNF-alpha production [1]
CNC(=C[N+](=O)[O-])NCCSCc1ccc(CN(C)C)o1 [Ranitidine hydrochloride],90.6 ± 21%,
CNC(=C[N+](=O)[O-])NCCSCc1ccc(CN(C)C)o1,102%,
CNC(=C[N+](=O)[O-])NCCSCc1ccc(CN(C)C)o1 [Ranitidine],97.5%,
C=CCc1ccc(O)c(-c2ccc(O)c(CC=C)c2)c1,85.4%,
O=C(O)CN(CCOCCOCCN(CC(=O)O)CC(=O)O)CC(=O)O,75.9%,
CC(C)(CO)[C@@H](O)C(=O)NCCCO (racemic) [D-Panthenol; dl-form as vitamin],,81.5%
CC(C)(CO)[C@@H](O)C(=O)NCCCO,73%,
O=C(O[C@@H]1Cc2c(O)cc(O)cc2O[C@@H]1c1cc(O)c(O)c(O)c1)c1cc(O)c(O)c(O)c1 [Epigallocatechin gallate],107%,
CCOC(=O)[C@H](CCc1ccccc1)N[C@@H](C)C(=O)N1[C@H](C(=O)O)C[C@H]2CCCC[C@@H]21 [Trandolapril],108%,
[Cl-].[Li+] [Lithium Chloride],74.5%,
CCC(=O)NS(=O)(=O)c1ccc(-c2c(-c3ccccc3)noc2C)cc1,65.7%,
CCN(CC)CCNC(=O)c1ccc(NC(C)=O)cc1 [N-Acetylprocainamide hydrochloride],82.1%,
CCN(CC)CCNC(=O)c1ccc(NC(C)=O)cc1,83.6%,
"CCCCCCN(CCCCCC)C(=O)Cc1c(-c2ccc(F)cc2)[nH]c2ccccc12 [N,N-Dihexyl-2-(4-fluorophenyl)indole-3-acetamide]",79.6%,
CC(=O)NNC(=O)N1Cc2ccccc2Oc2ccc(Cl)cc21,124%,
CNC[C@H](O)c1cccc(O)c1 [Phenylephrine hydrochloride],79.5%,
CNC[C@H](O)c1cccc(O)c1,56%,
Cc1ccccc1/C=C/C1=NCCN1 [Metrazoline oxalate],85.2%,
CC(=O)O[C@]1(C(C)=O)CC[C@H]2[C@@H]3C=C(C)C4=CC(=O)CC[C@@H]4[C@H]3CC[C@@]21C [Nomegestrol acetate],115%,
COc1ccc(CCN(C)CCc2ccc(OC)c(OC)c2)cc1OC [YS-035 hydrochloride],105%,
CC[N+](CC)(CC)CC [Tetraethylammonium chloride],101%,
Cc1cccc(-c2[nH]c(C(C)(C)C)nc2-c2ccc3nccnc3c2)n1,108%,
CC[C@@]1(O)C(=O)OCc2c1cc1n(c2=O)Cc2cc3cc(O)ccc3nc2-1,82.1%,
CC[C@@]1(O)C(=O)OCc2c1cc1n(c2=O)Cc2cc3cc(O)ccc3nc2-1 [10-Hydroxycamptothecin],58.9%,
NS(=O)(=O)c1cc2c(cc1Cl)N=C(CSCc1ccccc1)NS2(=O)=O,85.1%,
NS(=O)(=O)c1cc2c(cc1Cl)N=C(CSCc1ccccc1)NS2(=O)=O [Benzthiazide],119%,
